Measured values reported in patent US4921850A, “3-propenylcephem derivative” (Eisai Co., Ltd., priority 1986, dated 1990).
The name of at least one read-out is uncertain.

Tested on: ICR male 6 weeks-old mouse
Assay type: in vivo
Conditions: intravenous, physiological saline solution, five ICR male 6 weeks-old mouse
Excerpt: (1) Acute toxicity in mouse:
The compounds according to this invention dissolved in a physiological saline solution were intravenously dosed to five ICR male 6 weeks-old mouse.

SMILES | values of acute toxicity
CC(C(N)=O)[N+]1(C/C=C/C2=C(C(=O)[O-])N3C(=O)[C@@H](NC(=O)/C(=N\OCF)c4nsc(N)n4)[C@H]3SC2)CCCC1 (single isomer, unassigned) [Example 13-2] | > 2 g/kg
NC(=O)C1CC[N+](C/C=C/C2=C(C(=O)[O-])N3C(=O)[C@@H](NC(=O)/C(=N\OCF)c4nsc(N)n4)[C@H]3SC2)(CCO)CC1 (single isomer, unassigned) [Example 2-2, 7β-[2-(5-Amino-1,2,4-thiadiazol-3-yl)-(Z)-2-fluoromethoxyiminoacetamido]-3-[(E)-3-[1-(2-hydroxyethyl)-4-carbamoyl-1-piperidinio]-1-propen-1-yl]-3-cephem-4-carboxylate] | > 2 g/kg
C[N+]1(C/C=C/C2=C(C(=O)[O-])N3C(=O)[C@@H](NC(=O)/C(=N\OCF)c4nsc(N)n4)[C@H]3SC2)C[C@H](O)C[C@@H]1CO (single isomer, unassigned) [Example 6-2, 7β-[2-(5-Amino-1,2,4-thiadiazol-3-yl)-(Z)-2-fluoromethoxyiminoacetamido]-3-[(E)-3-(4R-hydroxy-2R-hydroxymethyl-1-methyl-1-pyrrolidinio)-1-propen-1-yl]-3-cephem-4-carboxylate] | > 2 g/kg
